Results as given in the supplement of paper PMC12819154, “High-throughput peptide-centric local stability assay extends protein–ligand identification to membrane proteins, tissues and bacteria” (Nature Structural & Molecular Biology, 2025).
Some of the results follow. Most entries show no effect beyond the scatter of the controls.

Chains of the proteins cited; added tags and fusions are not shown. Lines headed by an entry give the natural chain unless they say otherwise; changes in a name come on top.
UniProt Q8IZ40: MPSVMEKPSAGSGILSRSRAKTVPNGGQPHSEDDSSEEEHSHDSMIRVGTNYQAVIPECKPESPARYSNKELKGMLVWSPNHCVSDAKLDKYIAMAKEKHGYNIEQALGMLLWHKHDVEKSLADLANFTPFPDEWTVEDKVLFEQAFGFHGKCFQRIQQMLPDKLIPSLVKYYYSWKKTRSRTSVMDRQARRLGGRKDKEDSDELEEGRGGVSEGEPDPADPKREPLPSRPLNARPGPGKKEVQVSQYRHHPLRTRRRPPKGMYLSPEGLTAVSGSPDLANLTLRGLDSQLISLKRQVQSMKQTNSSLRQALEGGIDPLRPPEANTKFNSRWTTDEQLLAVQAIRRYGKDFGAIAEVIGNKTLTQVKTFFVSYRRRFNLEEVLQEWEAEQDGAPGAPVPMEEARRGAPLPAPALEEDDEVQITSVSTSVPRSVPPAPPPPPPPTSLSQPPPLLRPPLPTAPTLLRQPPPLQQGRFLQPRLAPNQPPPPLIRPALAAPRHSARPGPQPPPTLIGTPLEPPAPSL
UniProt Q86XN8: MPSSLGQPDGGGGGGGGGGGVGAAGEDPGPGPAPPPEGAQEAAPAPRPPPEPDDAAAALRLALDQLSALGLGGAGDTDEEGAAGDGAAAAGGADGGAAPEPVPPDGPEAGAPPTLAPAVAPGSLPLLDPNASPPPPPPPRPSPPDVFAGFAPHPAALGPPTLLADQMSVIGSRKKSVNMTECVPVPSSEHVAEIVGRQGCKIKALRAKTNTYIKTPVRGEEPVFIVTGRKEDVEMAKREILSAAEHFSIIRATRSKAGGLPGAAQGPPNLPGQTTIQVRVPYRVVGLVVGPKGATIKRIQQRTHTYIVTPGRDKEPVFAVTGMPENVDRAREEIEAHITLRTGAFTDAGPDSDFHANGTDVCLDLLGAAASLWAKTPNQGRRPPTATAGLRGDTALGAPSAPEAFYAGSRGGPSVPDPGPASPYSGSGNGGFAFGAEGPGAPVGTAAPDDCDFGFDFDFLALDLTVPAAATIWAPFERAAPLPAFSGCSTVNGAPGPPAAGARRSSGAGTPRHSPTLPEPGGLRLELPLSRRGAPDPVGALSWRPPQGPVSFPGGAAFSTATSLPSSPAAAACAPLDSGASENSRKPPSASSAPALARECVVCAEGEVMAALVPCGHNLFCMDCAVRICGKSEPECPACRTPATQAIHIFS
UniProt Q8IY92: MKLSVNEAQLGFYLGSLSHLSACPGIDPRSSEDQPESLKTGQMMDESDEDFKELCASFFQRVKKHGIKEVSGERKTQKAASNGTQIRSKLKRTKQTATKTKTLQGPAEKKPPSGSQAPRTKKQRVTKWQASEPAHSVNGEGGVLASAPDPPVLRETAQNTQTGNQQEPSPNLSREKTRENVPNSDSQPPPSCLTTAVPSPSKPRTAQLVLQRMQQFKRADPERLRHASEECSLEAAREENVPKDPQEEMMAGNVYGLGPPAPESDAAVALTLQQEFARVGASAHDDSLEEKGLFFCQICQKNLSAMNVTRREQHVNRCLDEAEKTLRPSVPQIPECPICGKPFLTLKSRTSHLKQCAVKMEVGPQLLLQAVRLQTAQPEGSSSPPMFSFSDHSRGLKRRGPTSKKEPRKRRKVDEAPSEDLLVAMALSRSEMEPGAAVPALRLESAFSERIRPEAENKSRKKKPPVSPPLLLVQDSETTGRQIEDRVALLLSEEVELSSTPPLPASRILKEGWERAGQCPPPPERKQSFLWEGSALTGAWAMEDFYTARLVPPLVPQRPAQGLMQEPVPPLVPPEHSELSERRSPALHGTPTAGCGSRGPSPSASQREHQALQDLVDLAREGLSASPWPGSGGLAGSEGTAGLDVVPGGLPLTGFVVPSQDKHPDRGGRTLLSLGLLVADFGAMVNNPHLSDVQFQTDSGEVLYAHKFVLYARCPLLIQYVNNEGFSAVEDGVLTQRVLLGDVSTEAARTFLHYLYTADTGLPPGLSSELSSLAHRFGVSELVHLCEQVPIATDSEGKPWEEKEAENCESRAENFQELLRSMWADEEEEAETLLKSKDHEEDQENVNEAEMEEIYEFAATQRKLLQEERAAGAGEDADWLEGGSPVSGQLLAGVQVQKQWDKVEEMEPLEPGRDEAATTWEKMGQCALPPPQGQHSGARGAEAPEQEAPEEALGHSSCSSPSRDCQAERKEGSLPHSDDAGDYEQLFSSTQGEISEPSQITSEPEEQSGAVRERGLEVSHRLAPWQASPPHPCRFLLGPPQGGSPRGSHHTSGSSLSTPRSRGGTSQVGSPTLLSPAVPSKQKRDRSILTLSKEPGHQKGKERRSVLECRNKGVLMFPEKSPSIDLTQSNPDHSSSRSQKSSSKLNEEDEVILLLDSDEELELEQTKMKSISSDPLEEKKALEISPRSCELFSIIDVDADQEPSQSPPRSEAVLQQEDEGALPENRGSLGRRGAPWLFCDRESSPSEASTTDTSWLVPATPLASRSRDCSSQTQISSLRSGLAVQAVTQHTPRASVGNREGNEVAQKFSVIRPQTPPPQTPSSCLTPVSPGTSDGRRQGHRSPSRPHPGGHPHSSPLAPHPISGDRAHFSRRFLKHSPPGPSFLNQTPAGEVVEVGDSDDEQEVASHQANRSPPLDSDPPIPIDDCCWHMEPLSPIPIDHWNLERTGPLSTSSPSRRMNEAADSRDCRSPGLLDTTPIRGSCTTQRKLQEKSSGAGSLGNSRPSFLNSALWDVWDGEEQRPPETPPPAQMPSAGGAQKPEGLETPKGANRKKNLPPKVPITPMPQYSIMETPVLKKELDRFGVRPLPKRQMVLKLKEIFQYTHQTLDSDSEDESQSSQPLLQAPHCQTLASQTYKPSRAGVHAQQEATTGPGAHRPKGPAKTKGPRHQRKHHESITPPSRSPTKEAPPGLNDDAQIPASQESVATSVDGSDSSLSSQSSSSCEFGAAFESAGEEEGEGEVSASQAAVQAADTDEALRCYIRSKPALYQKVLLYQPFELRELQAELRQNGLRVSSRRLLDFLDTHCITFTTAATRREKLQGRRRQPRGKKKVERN
UniProt Q8IY22: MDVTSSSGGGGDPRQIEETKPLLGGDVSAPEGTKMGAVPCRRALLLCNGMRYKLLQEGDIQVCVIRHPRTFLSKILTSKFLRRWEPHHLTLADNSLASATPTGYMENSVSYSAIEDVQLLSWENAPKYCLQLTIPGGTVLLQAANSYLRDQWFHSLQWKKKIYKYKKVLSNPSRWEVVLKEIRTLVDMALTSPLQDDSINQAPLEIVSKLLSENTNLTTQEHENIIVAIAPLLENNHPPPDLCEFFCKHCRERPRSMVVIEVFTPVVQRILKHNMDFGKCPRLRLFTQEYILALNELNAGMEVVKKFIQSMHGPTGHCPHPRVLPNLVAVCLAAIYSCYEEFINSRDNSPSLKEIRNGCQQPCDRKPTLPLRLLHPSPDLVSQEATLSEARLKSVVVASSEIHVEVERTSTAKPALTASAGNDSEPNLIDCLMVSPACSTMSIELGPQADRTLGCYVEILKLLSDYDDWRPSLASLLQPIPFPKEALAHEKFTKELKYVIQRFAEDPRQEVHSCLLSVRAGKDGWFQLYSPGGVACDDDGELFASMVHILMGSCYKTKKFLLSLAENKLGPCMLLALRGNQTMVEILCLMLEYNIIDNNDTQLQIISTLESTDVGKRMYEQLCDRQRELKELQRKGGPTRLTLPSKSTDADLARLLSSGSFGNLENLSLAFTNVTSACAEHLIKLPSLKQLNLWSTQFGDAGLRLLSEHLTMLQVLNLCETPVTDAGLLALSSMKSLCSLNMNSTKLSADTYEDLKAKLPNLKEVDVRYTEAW
UniProt Q86Y37: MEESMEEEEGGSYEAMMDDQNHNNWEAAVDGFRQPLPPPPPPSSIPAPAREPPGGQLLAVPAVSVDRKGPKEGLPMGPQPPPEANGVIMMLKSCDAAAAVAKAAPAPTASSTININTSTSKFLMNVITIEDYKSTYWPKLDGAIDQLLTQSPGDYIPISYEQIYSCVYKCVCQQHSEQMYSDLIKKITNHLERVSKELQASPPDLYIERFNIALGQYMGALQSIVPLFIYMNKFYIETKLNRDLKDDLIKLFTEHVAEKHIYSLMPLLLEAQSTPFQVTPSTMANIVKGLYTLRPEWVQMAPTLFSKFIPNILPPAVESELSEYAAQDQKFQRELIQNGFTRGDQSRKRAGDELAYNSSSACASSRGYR
UniProt Q8IZM8: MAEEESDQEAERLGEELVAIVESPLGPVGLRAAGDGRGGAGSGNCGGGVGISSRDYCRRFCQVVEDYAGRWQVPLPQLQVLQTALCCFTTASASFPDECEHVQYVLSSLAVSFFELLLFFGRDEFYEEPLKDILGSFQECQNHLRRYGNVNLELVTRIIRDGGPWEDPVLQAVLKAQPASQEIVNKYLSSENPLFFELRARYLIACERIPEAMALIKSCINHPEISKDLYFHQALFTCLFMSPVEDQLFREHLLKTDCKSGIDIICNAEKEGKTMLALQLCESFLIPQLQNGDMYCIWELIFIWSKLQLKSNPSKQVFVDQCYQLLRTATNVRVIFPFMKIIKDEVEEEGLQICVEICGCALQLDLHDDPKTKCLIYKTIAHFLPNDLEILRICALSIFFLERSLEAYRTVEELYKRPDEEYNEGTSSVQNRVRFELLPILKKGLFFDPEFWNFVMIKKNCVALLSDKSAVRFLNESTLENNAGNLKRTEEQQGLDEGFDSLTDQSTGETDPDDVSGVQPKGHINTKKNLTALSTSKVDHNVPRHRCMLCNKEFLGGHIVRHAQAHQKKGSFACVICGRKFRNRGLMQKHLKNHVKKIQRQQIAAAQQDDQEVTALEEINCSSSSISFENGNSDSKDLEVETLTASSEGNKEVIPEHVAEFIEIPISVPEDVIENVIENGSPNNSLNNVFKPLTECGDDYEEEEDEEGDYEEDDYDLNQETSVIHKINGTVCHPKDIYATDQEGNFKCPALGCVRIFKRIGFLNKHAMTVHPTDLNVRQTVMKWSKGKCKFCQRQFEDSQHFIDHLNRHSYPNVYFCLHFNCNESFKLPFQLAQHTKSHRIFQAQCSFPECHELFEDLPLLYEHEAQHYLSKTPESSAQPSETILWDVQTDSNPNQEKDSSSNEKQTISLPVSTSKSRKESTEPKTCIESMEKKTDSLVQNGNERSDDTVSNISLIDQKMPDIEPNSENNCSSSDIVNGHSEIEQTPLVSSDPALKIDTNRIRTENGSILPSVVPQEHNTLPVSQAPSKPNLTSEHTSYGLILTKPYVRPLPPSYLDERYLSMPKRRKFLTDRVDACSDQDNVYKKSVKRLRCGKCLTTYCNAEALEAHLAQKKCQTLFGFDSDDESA
UniProt Q8N3U4: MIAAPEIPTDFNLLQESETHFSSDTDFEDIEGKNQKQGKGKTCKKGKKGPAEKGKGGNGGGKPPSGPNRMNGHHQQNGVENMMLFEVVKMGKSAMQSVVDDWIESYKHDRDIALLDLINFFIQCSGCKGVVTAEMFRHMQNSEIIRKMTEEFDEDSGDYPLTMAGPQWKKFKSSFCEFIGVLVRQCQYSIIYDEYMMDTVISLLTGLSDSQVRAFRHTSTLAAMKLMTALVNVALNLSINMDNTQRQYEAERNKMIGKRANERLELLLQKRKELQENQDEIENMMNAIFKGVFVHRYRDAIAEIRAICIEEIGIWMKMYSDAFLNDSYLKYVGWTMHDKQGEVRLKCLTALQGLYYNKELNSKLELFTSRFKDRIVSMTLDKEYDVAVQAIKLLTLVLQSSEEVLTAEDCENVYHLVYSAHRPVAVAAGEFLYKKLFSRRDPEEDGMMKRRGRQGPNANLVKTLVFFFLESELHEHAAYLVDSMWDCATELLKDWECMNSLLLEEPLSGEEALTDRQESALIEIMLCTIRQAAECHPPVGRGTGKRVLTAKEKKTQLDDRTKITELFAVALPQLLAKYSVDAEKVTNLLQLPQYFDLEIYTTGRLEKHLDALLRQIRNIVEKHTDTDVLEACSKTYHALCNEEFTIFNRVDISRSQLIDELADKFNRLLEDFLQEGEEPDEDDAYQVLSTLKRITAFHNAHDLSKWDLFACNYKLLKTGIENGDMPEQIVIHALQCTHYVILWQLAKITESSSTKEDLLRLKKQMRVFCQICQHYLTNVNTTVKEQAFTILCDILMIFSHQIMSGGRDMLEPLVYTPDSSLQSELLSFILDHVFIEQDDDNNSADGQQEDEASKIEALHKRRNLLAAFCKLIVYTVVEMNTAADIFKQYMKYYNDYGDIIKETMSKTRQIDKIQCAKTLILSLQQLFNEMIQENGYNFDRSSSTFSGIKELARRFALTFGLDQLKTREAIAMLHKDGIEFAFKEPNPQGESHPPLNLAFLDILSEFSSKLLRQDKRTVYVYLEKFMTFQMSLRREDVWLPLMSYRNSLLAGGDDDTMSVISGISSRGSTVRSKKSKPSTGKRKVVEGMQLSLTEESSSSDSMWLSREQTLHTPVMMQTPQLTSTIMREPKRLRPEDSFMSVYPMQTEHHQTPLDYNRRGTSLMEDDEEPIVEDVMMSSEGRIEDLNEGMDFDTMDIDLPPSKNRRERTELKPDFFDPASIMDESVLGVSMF

Compound: CN[C@@H]1C[C@H]2O[C@@](C)([C@@H]1OC)n1c3ccccc3c3c4c(c5c6ccccc6n2c5c31)C(=O)NC4 [staurosporine]
Assay: log2 fold change of tryptic peptide abundance, ligand vs vehicle (limited proteolysis) (log2 ratio); higher = more trypsin-susceptible (destabilized)
Details: ligand concentration: 20 uM; sample: K562 cleared lysate; digestion: 4 min, 22 C (HT-PELSA RT4min, Orbitrap Astral)

Row | Target | log2 fold change
1 | THNSL1 (peptide sequence: AQIIGSQR, peptide start residue: 418) (UniProt Q8IYQ7) | 0.679
2 | RCOR2 (peptide sequence: IQQMLPDKLIPSLVK, peptide start residue: 157) (UniProt Q8IZ40) | 0.299
3 | MEX3D (peptide sequence: DKEPVFAVTGMPENVDR, peptide start residue: 313) (UniProt Q86XN8) | -0.383
4 | SLX4 (peptide sequence: KVDEAPSEDLLVAMALSR, peptide start residue: 412) (UniProt Q8IY92) | 0.558
5 | CMIP (peptide sequence: LSADTYEDLK, peptide start residue: 747) (UniProt Q8IY22) | -0.173
6 | CACUL1 (peptide sequence: KITNHLER, peptide start residue: 186) (UniProt Q86Y37) | -0.729
7 | MYO18B (peptide sequence: RIDEDQDDLNELMQK, peptide start residue: 1895) (UniProt Q8IUG5) | 0.932
8 | UniProt Q8IZM8 (peptide sequence: QTISLPVSTSK, peptide start residue: 906) | -0.236
9 | UniProt Q86YW9 (peptide sequence: KKPQVNAK, peptide start residue: 92) | 0.112
10 | STAG2 (peptide sequence: YVGWTMHDK, peptide start residue: 331) (UniProt Q8N3U4) | 0.631
11 | C1orf174 (peptide sequence: LASAQEVAGSTSAK, peptide start residue: 26) (UniProt Q8IYL3) | -0.1

From entry 7 as far as 8, copied from above:
Row | Target | log2 fold change
7 | MYO18B (peptide sequence: RIDEDQDDLNELMQK, peptide start residue: 1895) (UniProt Q8IUG5) | 0.932
8 | UniProt Q8IZM8 (peptide sequence: QTISLPVSTSK, peptide start residue: 906) | -0.236
